# Reference: article PMC7862700
# Sequences of proteins named here, by UniProt entry; tags and fusion partners are left off. A change or cut given only in a name is not applied to a line headed by its entry.
# UniProt Q01892: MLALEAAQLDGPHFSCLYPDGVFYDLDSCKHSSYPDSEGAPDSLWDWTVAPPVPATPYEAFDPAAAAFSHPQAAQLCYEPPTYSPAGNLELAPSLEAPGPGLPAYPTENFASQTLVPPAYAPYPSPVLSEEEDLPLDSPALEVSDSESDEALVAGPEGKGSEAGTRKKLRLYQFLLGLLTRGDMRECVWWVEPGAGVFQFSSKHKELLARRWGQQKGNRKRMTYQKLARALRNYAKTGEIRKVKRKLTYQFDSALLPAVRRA
# UniProt P41161: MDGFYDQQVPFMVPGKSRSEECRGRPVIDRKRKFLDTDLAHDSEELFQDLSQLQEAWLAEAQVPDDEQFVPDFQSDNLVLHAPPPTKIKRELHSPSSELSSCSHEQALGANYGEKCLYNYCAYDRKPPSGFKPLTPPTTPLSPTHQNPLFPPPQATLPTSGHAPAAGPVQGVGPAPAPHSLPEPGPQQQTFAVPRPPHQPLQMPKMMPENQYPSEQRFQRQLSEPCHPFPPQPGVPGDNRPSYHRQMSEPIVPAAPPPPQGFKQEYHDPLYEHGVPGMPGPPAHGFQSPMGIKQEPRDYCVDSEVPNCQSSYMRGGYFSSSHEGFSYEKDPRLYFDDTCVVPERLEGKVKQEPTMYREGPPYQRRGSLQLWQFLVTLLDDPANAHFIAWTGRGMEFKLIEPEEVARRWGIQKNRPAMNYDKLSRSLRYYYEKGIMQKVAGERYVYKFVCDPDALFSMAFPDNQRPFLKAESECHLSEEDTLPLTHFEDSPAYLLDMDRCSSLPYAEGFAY
# The entries are a selection whose mix differs from that of the whole data set. For part of these data: At the low end of the ranking the order means little.
# Target: T1, FLI1 (UniProt Q01543)
# T1 sequence: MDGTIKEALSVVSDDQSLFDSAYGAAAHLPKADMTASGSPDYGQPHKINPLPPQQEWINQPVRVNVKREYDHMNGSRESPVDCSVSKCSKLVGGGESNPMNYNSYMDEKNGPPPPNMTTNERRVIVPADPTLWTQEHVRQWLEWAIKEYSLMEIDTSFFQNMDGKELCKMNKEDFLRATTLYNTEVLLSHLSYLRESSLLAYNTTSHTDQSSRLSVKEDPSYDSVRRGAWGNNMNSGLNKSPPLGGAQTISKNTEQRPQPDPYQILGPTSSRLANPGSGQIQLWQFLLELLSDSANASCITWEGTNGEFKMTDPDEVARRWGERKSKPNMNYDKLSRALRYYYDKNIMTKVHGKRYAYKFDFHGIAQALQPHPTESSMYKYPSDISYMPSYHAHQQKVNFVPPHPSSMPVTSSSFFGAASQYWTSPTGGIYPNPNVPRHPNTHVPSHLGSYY
# Assay: DAPPL (digital affinity profiling via proximity ligation, sequencing)
# Conditions: 10 mM Tris-HCl pH 7.5, 50 mM NaCl, 1 mM DTT, 4% glycerol, room temperature, 30 min; GST-TFs on glutathione beads, 16-mer random dsDNA library, 0.1% …; high values mean tight binding; double strand, one strand shown; scale: fold enrichment (6-mer frequency, TF over GST control)
row,Sequence,binding signal
1,TAACTA,1.36
2,CCTAGC,1.18
3,GTACAC,1.18
4,AAGCTT,1.31
5,CCGCTT,1.89
6,CGCGCT,1.25
7,CCCCTC,1.48
8,AAGTAT,1.44
9,CAACGA,1.05
10,ATTTTA,1.32
11,GCGGAA,1.37
12,CCGGAT,3.23
13,AACACC,1.19
14,CTGCGT,1.12
15,ATTACT,1.3
16,CTGCTT,1.69
17,CCGTTT,1.47
18,TGCATT,1.34
19,TTTGTG,1.31
20,CAAACA,0.995
21,ATCCCG,1.5
22,AAGTTC,1.36
23,TACACA,1.21
24,AGTGCT,1.47
25,TATGGG,1.23
26,TCTACA,1.12

# Fetched one by one from above, 4 records:
row,Sequence,binding signal
3,GTACAC,1.18
4,AAGCTT,1.31
13,AACACC,1.19
5,CCGCTT,1.89

# Target: SPIB (UniProt Q01892)
# Assay: as above
# Conditions: 10 mM Tris-HCl pH 7.5, 50 mM NaCl, 1 mM DTT, 4% glycerol, room temperature, 30 min; GST-TFs on glutathione beads, 16-mer random dsDNA library, 0.1% …; high values mean tight binding; double strand, one strand shown; scale: fold enrichment (6-mer frequency, TF over GST control)
row,Sequence,binding signal
1,ATAAGG,1.01
2,AACTCT,1.28
3,TTGCTC,1.25
4,TTAATA,1.22
5,ATTGGG,1.26
6,ACACCA,0.881
7,CTCCCA,1.36
8,TAGAAT,0.999
9,CCGTCA,1.2
10,GCTTGT,1.13
11,TAAATT,1.3
12,TTTTCT,1.18
13,ATTCAT,1.21
14,GTTATT,1.09

# Target: ETV5 (UniProt P41161)
# Assay: as above
# Conditions: 10 mM Tris-HCl pH 7.5, 50 mM NaCl, 1 mM DTT, 4% glycerol, room temperature, 30 min; GST-TFs on glutathione beads, 16-mer random dsDNA library, 0.1% …; high values mean tight binding; double strand, one strand shown; scale: fold enrichment (6-mer frequency, TF over GST control)
row,Sequence,binding signal
1,ATAAGG,1.04
2,AACTCT,1.36
3,TTGCTC,1.41
4,TTAATA,1.15
5,ATTGGG,1.26
6,ACACCA,1.04
7,CTCCCA,1.37
8,TAGAAT,1.03
9,CCGTCA,1.23
10,GCTTGT,1.2
11,TAAATT,1.26
12,TTTTCT,1.28
13,ATTCAT,1.21
14,GTTATT,1.26
